Some of the results follow. Single values are uncertain, as repeats are few or missing.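 The apoptosis fraction was the count of cleaved-PARP antibody-stained nuclei relative to all DNA-stained nuclei, imaged in 1,536-well plates. Screening doses were set so most cells survived, and baseline and induced cleaved-PARP levels vary greatly across cell lines.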
Assays:
Assay in all cases: cleaved PARP positive nuclei fraction relative to DMSO control; melanoma cells; higher = more apoptosis
Details in all cases: library dose: low library concentration; 72 h
CBRC034 = test system: CBRC034 (line from a melanoma biopsy)
COLO792 = test system: COLO792
COLO800 = test system: COLO800
COLO829 = test system: COLO829
G361 = test system: G361
IPC-298 = test system: IPC-298
IST-MEL1 = test system: IST-MEL1
LB2518-MEL = test system: LB2518-MEL
LOXIMVI = test system: LOXIMVI
MEL-HO = test system: MEL-HO
MZ2-MEL = test system: MZ2-MEL
MeWo = test system: MeWo
RPMI7951 = test system: RPMI7951
RVH-421 = test system: RVH-421
SkMel28 = test system: SkMel28
SkMel2 = test system: SkMel2
SkMel30 = test system: SkMel30
UACC62 = test system: UACC62

SMILES	cleaved PARP positive nuclei fraction (CBRC034)	cleaved PARP positive nuclei fraction (COLO792)	cleaved PARP positive nuclei fraction (COLO800)	cleaved PARP positive nuclei fraction (COLO829)	cleaved PARP positive nuclei fraction (G361)	cleaved PARP positive nuclei fraction (IPC-298)	cleaved PARP positive nuclei fraction (IST-MEL1)	cleaved PARP positive nuclei fraction (LB2518-MEL)	cleaved PARP positive nuclei fraction (LOXIMVI)	cleaved PARP positive nuclei fraction (MEL-HO)	cleaved PARP positive nuclei fraction (MZ2-MEL)	cleaved PARP positive nuclei fraction (MeWo)	cleaved PARP positive nuclei fraction (RPMI7951)	cleaved PARP positive nuclei fraction (RVH-421)	cleaved PARP positive nuclei fraction (SkMel28)	cleaved PARP positive nuclei fraction (SkMel2)	cleaved PARP positive nuclei fraction (SkMel30)	cleaved PARP positive nuclei fraction (UACC62)
CC[C@]1(O)C[C@H]2CN(CCc3c([nH]c4ccccc34)[C@@](C(=O)OC)(c3cc4c(cc3OC)N(C=O)[C@H]3[C@@](O)(C(=O)OC)[C@H](OC(C)=O)[C@]5(CC)C=CCN6CC[C@]43[C@@H]65)C2)C1 [vincristine] + O=C(O)[C@@H]1[O][Sb](=[O])([O][Sb]2(=[O])[O][C@H]([C@H](O)CO)[C@H](O)[C@H](C(=O)O)[O]2)[O][C@H]([C@H](O)CO)[C@@H]1O [stibogluconate] (first compound 0.0001 µM, partner dose 2 µM)	186%	39.1%	41.8%	42.5%	98.5%	81%	59.6%	40.5%	226%	220%	53%	64.3%	108%	44.2%	80.2%	76.9%	98.8%	240%
CCCCCCCCCCCCCCCCCCOP(=O)([O-])OC1CC[N+](C)(C)CC1 [Perifosine] + Nc1ccn([C@@H]2O[C@H](CO)[C@@H](O)C2(F)F)c(=O)n1 [gemcitabine] (first compound 0.4 µM, partner dose 0.0004 µM)	74.1%	117%	49.3%	103%	155%	131%	252%	237%	64.5%	82.2%	122%	145%	59.8%	124%	29.5%	47.6%	84.3%	23.8%
Cc1cc(Nc2cc(N3CCN(C)CC3)nc(Sc3ccc(NC(=O)C4CC4)cc3)n2)n[nH]1 [Tozasertib] + C[C@]1(c2nc3c(C(N)=O)cccc3[nH]2)CCCN1 [Veliparib] (first compound 0.006 µM, partner dose 1.4 µM)	139%	137%	152%	147%	185%	172%	33.4%	210%	109%	90%	166%	87.3%	118%	37.3%	313%	141%	233%	87%
O=c1[nH]nc(Sc2ncc([N+](=O)[O-])s2)n1-c1ccc2c(c1)OCCO2 + COc1ccc(Cl)c(Nc2nc3ccccc3nc2NS(=O)(=O)c2cccc(NC(=O)C(C)(C)N)c2)c1 [XL147] (first compound 0.2 µM, partner dose 0.8 µM)	120%	85%	195%	155%	108%	92%	135%	74.2%	89%	117%	78.8%	80.3%	98.1%	137%	81.9%	98.7%	237%	135%
Cc1ccc(Nc2nccc(N(C)c3ccc4c(C)n(C)nc4c3)n2)cc1S(N)(=O)=O [Pazopanib] + CCN(CC)CCNC(=O)c1c(C)[nH]c(/C=C2\C(=O)Nc3ccc(F)cc32)c1C [sunitinib] (first compound 0.4 µM, partner dose 0.4 µM)	66.5%	69.8%	101%	127%	134%	106%	124%	165%	72.1%	88%	140%	90.1%	90%	22.9%	74.2%	71.6%	22.4%	38.9%
O=C(Nc1cc(C(F)(F)F)cc(C(F)(F)F)c1)c1cc(Cl)ccc1O + C#Cc1cccc(Nc2ncnc3cc(OCCOC)c(OCCOC)cc23)c1 [erlotinib] (first compound 0.016 µM, partner dose 0.8 µM)	151%	121%	12.2%	129%	151%	29.2%	64.4%	64.6%	57.9%	38.7%	142%	148%	88.4%	90%	174%	99.2%	167%	114%
CC[C@]1(O)C[C@H]2CN(CCc3c([nH]c4ccccc34)[C@@](C(=O)OC)(c3cc4c(cc3OC)N(C=O)[C@H]3[C@@](O)(C(=O)OC)[C@H](OC(C)=O)[C@]5(CC)C=CCN6CC[C@]43[C@@H]65)C2)C1 [vincristine] + OCc1c[nH]c2ccccc12 [Indole-3-carbinol] (first compound 0.0001 µM, partner dose 0.8 µM)	59.6%	26.9%	158%	73.2%	159%	90.7%	73%	266%	156%	79.7%	59.7%	239%	208%	127%	130%	103%	277%	119%
COc1cc([C@@H]2c3cc4c(cc3[C@@H](O[C@@H]3O[C@@H]5CO[C@@H](C)O[C@H]5[C@H](O)[C@H]3O)[C@H]3COC(=O)[C@H]23)OCO4)cc(OC)c1O [etoposide] + C=CCNC1=C2C[C@@H](C)C[C@H](OC)[C@H](O)[C@@H](C)/C=C(\C)[C@H](OC(N)=O)[C@@H](OC)/C=C\C=C(/C)C(=O)NC(=CC1=O)C2=O [Tanespimycin] (first compound 0.02 µM, partner dose 0.002 µM)	36.5%	113%	84.9%	57.2%	215%	78.8%	28.6%	108%	174%	101%	102%	98.9%	34.1%	73.5%	38.4%	43.6%	120%	68.4%

Source: the supplement of paper PMC4604168 (melanoma cell lines)
